Laboratory results taken from US20110152333A1, “3-CYANOPYRROLIDINYL-PHENYL-OXAZOLIDINONES AS ANTIBACTERIAL AGENTS” (FERRER INTERNACIONAL, S.A., priority 2008, published 2011).
In brackets after ≈: the same amount, converted by molar mass.

How the values were obtained:
Assay in all cases: MIC, micro dilution (NCCLS M7-A5)
[1] = test system: B. fragilis sp. fragilis ATCC25285; type: cell-based; settings: Bacteroides fragilis, Table 1, Brucella Blood medium for anaerobic strains
[2] = test system: S. pneumoniae ATCC49619 PR; type: cell-based; settings: Streptococcus pneumoniae, Table 1, 5% CO2
[3] = test system: Moraxella catarrhalis HCI-78; type: cell-based; settings: HCI78, Table 1, 5% CO2
[4] = test system: S. aureus LNZ-R 432; type: cell-based; settings: Staphylococcus aureus, LNZR432, Table 1
[5] = test system: E. faecium LNZ-R LR-4; type: cell-based; settings: Enterococcus faecium, Table 1
[6] = test system: E. faecium ATCC51559 MDR; type: cell-based; settings: Enterococcus faecium, Table 1
[7] = test system: S. aureus ATCC25923 MS; type: cell-based; settings: Staphylococcus aureus, Table 1
[8] = test system: H. influenzae ATCC49247; type: cell-based, Haemophylus influenzae; settings: Haemophilus influenzae, Table 1

MIC [1]: 0.125 µg/mL (≈ 0.343 µM) | MIC [2]: 0.125 µg/mL (≈ 0.343 µM) | MIC [3]: 0.25 µg/mL (≈ 0.686 µM) | MIC [4]: 64 µg/mL (≈ 176 µM) | MIC [5]: 4 µg/mL (≈ 11 µM) | MIC [6]: 0.125 µg/mL (≈ 0.343 µM) | MIC [7]: 0.25 µg/mL (≈ 0.686 µM) | MIC [8]: 2 µg/mL (≈ 5.49 µM)
Compound: CC(=O)NC[C@H]1CN(c2cc(F)c(N3CCC(C#N)C3)c(F)c2)C(=O)O1 (stereo partly drawn) [Ex. 2, N-{(5S)-3-[3,5-difluoro-4-(3-cyanopyrrolidin-1-yl)phenyl]-2-oxo-5-oxazolidinylmethyl}acetamide]
